{"source": "the supplement of paper PMC12889115", "system": "Salmonella enterica serovar Typhimurium SL1344", "test": "bacterial growth OD600 after 18 h with compound and polymyxin B; higher = more bacterial growth (less inhibition)", "details": "50 µM, Mueller-Hinton broth", "note": "This is one part of the list. Values are raw readings; no control value is given beside them.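 Primary screen: polymyxin B was added at a level permeabilizing Salmonella outer membranes while sparing inner membranes. DMSO wells, both with and without polymyxin B, established maximum growth. Plate-to-plate variation meant each plate was ranked on its own, and the lowest-OD600 compounds were selected as hits.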", "data": [{"smiles": "O=C(c1cn(C/C=C/c2ccccc2)nn1)N1CCC(c2ccc(F)cc2)C1", "note": "(stereo unspecified)", "values": [{"measurement": "bacterial growth OD600", "setting": "polymyxin B 1 µg/mL", "value": 0.023}]}, {"smiles": "COc1ccc(CNC(C)c2cnn(-c3cccc(F)c3)c2C)c(F)c1", "note": "(stereo unspecified)", "values": [{"measurement": "bacterial growth OD600", "setting": "polymyxin B 0.75 µg/mL", "value": 0.916}]}, {"smiles": "O=C(NCC1CCCN(CC#Cc2ccccc2)C1)c1cccs1", "note": "(stereo unspecified)", "values": [{"measurement": "bacterial growth OD600", "setting": "polymyxin B 1 µg/mL", "value": 0.719}]}, {"smiles": "CCOc1ccc2nc(N3CCCN(Cc4ccc(OCCO)cc4)CC3)nc(C)c2c1", "values": [{"measurement": "bacterial growth OD600", "setting": "polymyxin B 0.75 µg/mL", "value": 0.787}]}, {"smiles": "COc1cccc(-c2ccc(NC(=O)C3CCCN(C(=O)CC(F)(F)F)C3)cc2)c1", "note": "(stereo unspecified)", "values": [{"measurement": "bacterial growth OD600", "setting": "polymyxin B 0.75 µg/mL", "value": 0.796}]}, {"smiles": "CN(CCC1CCOCC1)C(=O)c1cc(COc2cccc(F)c2)[nH]n1", "values": [{"measurement": "bacterial growth OD600", "setting": "polymyxin B 1 µg/mL", "value": 1.03}]}, {"smiles": "CN1CCC(CC(=O)NC2CCCN(CC3CCCCC3)C2)CC1", "note": "(stereo unspecified)", "values": [{"measurement": "bacterial growth OD600", "setting": "polymyxin B 1 µg/mL", "value": 0.997}]}, {"smiles": "CCC1CN(Cc2c(C)n(C)n(-c3ccccc3)c2=O)Cc2cc(OC)ccc2O1", "note": "(stereo unspecified)", "values": [{"measurement": "bacterial growth OD600", "setting": "polymyxin B 0.75 µg/mL", "value": 0.867}]}, {"smiles": "COc1ccc(OC)c(-c2cc(Cl)c3c(c2)CC(CNC(=O)CCc2cccnc2)O3)c1", "note": "(stereo unspecified)", "values": [{"measurement": "bacterial growth OD600", "setting": "polymyxin B 0.75 µg/mL", "value": 0.004}]}, {"smiles": "CC1(CCC(=O)N2CCC3(CCCN(Cc4cccc(F)c4F)C3)C2)CC1", "note": "(stereo unspecified)", "values": [{"measurement": "bacterial growth OD600", "setting": "polymyxin B 1 µg/mL", "value": 0.028}]}, {"smiles": "CCS(=O)(=O)c1ncc(CN(C)C(C)c2cccc(OC)c2)n1Cc1ccccc1", "note": "(stereo unspecified)", "values": [{"measurement": "bacterial growth OD600", "setting": "polymyxin B 1 µg/mL", "value": 0.395}]}, {"smiles": "CC(C)CNc1ccc(C(=O)N2CCCCC2CCn2cccn2)cn1", "note": "(stereo unspecified)", "values": [{"measurement": "bacterial growth OD600", "setting": "polymyxin B 1 µg/mL", "value": 0.978}]}, {"smiles": "COc1cc(CN2CC[C@@H](N3CCCCCC3)[C@H](O)C2)cc(Cl)c1OC", "values": [{"measurement": "bacterial growth OD600", "setting": "polymyxin B 0.75 µg/mL", "value": 0.735}]}, {"smiles": "O=C(CCc1cnccn1)N1CCC(C2CCN(c3ncccn3)CC2)C1", "note": "(stereo unspecified)", "values": [{"measurement": "bacterial growth OD600", "setting": "polymyxin B 0.75 µg/mL", "value": 0.841}]}, {"smiles": "O=C(Cc1cc(F)ccc1F)N1CCC(C2(c3cccnc3)NC(=O)N(CC3CCCO3)C2=O)CC1", "note": "(stereo unspecified)", "values": [{"measurement": "bacterial growth OD600", "setting": "polymyxin B 0.75 µg/mL", "value": 0.878}]}, {"smiles": "Cc1c[nH]c(C(=O)N2CCC3(CCCN(Cc4cccc(F)c4F)C3=O)C2)n1", "note": "(stereo unspecified)", "values": [{"measurement": "bacterial growth OD600", "setting": "polymyxin B 1 µg/mL", "value": 0.879}]}, {"smiles": "CN(C)c1ncccc1CNC(=O)CCc1ccco1", "values": [{"measurement": "bacterial growth OD600", "setting": "polymyxin B 1 µg/mL", "value": 0.924}]}, {"smiles": "Nc1ncc(CN2CCCC(CO)(CCc3ccccc3)C2)cn1", "note": "(stereo unspecified)", "values": [{"measurement": "bacterial growth OD600", "setting": "polymyxin B 0.75 µg/mL", "value": 0.798}]}, {"smiles": "COCC1CCCN(C2CCN(c3ccc(NC(=O)CCCCc4ccccc4)cc3)CC2)C1", "note": "(stereo unspecified)", "values": [{"measurement": "bacterial growth OD600", "setting": "polymyxin B 0.75 µg/mL", "value": 0.761}]}, {"smiles": "CCOC(=O)CC1COCCN1C(=O)Cn1nnnc1CN1CCCC1", "note": "(stereo unspecified)", "values": [{"measurement": "bacterial growth OD600", "setting": "polymyxin B 0.75 µg/mL", "value": 0.861}]}, {"smiles": "COc1cccc(OCc2nc(C(=O)N3CCCC(C)C3)co2)c1", "note": "(stereo unspecified)", "values": [{"measurement": "bacterial growth OD600", "setting": "polymyxin B 1 µg/mL", "value": 1.05}]}, {"smiles": "CCn1nc(C)c(CNC(=O)c2cc(NC(=O)C3CCCCC3)cc3ncn(CCOC)c23)c1C", "values": [{"measurement": "bacterial growth OD600", "setting": "polymyxin B 0.75 µg/mL", "value": 0.801}]}, {"smiles": "Cc1cc(CN(C)C(=O)c2csc3nc(-c4cccc(C(F)(F)F)c4)cn23)on1", "values": [{"measurement": "bacterial growth OD600", "setting": "polymyxin B 1 µg/mL", "value": 1.11}]}, {"smiles": "Cc1ccc(CC2(CCC(=O)N3CCCCC3c3ccccn3)CCC(=O)N2)cc1", "note": "(stereo unspecified)", "values": [{"measurement": "bacterial growth OD600", "setting": "polymyxin B 0.75 µg/mL", "value": 0.944}]}, {"smiles": "Cc1cnc(C)c(-c2ccc3c(c2)CC(CNC(=O)CSc2ccccn2)O3)n1", "note": "(stereo unspecified)", "values": [{"measurement": "bacterial growth OD600", "setting": "polymyxin B 0.75 µg/mL", "value": 0.905}]}, {"smiles": "O=C(c1cnn(-c2nccc(-c3cc4ccccc4o3)n2)c1C1CC1)N1CCN(CCO)CC1", "values": [{"measurement": "bacterial growth OD600", "setting": "polymyxin B 0.75 µg/mL", "value": 0.959}]}, {"smiles": "CCn1nc(C)c(CNc2nc3nonc3nc2N(C)C)c1C", "values": [{"measurement": "bacterial growth OD600", "setting": "polymyxin B 0.75 µg/mL", "value": 0.798}]}, {"smiles": "Cc1noc(C)c1C(=O)N1CCC(C2CCN(CCc3ccccc3)CC2)C1", "note": "(stereo unspecified)", "values": [{"measurement": "bacterial growth OD600", "setting": "polymyxin B 1 µg/mL", "value": 0.981}]}, {"smiles": "Cc1occc1C(=O)N(C)C(Cc1ccccc1)C1CCN(Cc2cccn2-c2ncccn2)CC1", "note": "(stereo unspecified)", "values": [{"measurement": "bacterial growth OD600", "setting": "polymyxin B 0.75 µg/mL", "value": 0.863}]}, {"smiles": "Cc1nonc1CN(C)c1ccc(-c2nc(C3CC3)no2)cn1", "values": [{"measurement": "bacterial growth OD600", "setting": "polymyxin B 0.75 µg/mL", "value": 0.675}]}, {"smiles": "Cc1nonc1CN(C)C(=O)C1CCCN(c2nc(-c3ccccc3)nc3c2CCC3)C1", "note": "(stereo unspecified)", "values": [{"measurement": "bacterial growth OD600", "setting": "polymyxin B 1 µg/mL", "value": 0.008}]}]}
